# Data reported in patent publication US20050238581A1, “Dynamic hepatic recycling glucose tolerance test” (priority 2002, published 2005).
# Assay: intraperitoneal hepatic recycling glucose tolerance test (HRGTT) with [1, 2-^13C2]-glucose load
# Type: in vivo, C57BL6 mice
# Conditions: at 60 minutes, ip 1 mg/gm
# Protocol: Stable isotopes of the M2 isotopomer glucose was administered at 1 mg glucose/gm body weight by intraperitoneal injection. Animals were euthanized by an overdose of isoflurane anesthesia, and tissue from liver and skeletal muscle were rapidly dissected free, snap-frozen in liquid nitrogen, and stored at −80° C. until processed for isolation of RNA or glycogen. Cytosolic protein was extracted from the liver tissue after homogenization with 10 strikes in lysis buffer containing 0.25 M sucrose, I OmM Tris-HCL(pH7.4), 3 mM MgCL2, 0.1 mM PMSF, 20 mM NaF, 1 mM Na3VO4, 1 MM Na4P207, 1 μg/ml of leupeptin/aprotinin/pepstatin. The resulting cell lysate was filtered with 4 layers of cheesecloth. Nuclei were pelleted by centrifugation at 1000 g for 10 min. Mitochondria were precipitated by centrifugation at 15,000 g for 20 min from the supernatant. […] Protein concentration from cytosol were measured by using an absorbance at 595 run (BCA kit from Pierce). […] Density of each band was determined by scanning the exposed film. The time course of glucose and lactate isotopomers in plasma, and glucose isotopomers in liver glycogen was determined using gas chromatography/mass spectrometry. […] The absorption of administered glucose was monitored by the time course of M2 isotopomer, and hepatic glucose recycling by the time course of M1 isotopomer of glucose.
structure (smiles),measurement,value
"OC[C@H]1OC(O)[C@H](O)[C@@H](O)[C@@H]1O (stereo partly shown) [[1,2-^13C2]-glucose]","plasma glucose level, peak",372 mg/dL
